Laboratory results taken from PubChem BioAssay AID1259415 (National Center for Advancing Translational Sciences (NCATS), 2018).
About 18,000 (4.4%) of roughly 410,000 compounds were called active. The inconclusive results got no clear call from the source; some entries with a clear call stand among them for comparison. Rule as the data show it: active = activity change below about -60%; inconclusive = no clear call, values can overlap the other calls; inactive = above about -39%.

assay: qHTS Assay for inhibitors of the human cytomegalovirus (HCMV); conditions: HFF cells, HCMV-luciferase reporter, 72 h; at 57.5 µM; stronger effect = lower value
In short: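 HFF cells seeded 16 h at 37C, treated with compounds, infected with luciferase-reporter HCMV at MOI 1 PFU/cell; luciferase read at 72 h post infection, normalized to buffer-only and Salinomycin controls.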
% is scaled to controls: 0 for no effect and ±100 for the full control effect.

Compound	activity change, negative = inhibition
O=C1CC(Sc2nnnn2C2CCCCC2)C(=O)N1c1ccccc1 (stereo not drawn)	active: -69.2%
Cc1nc2ccc(Br)cc2c(=O)n1-c1ccc([N+](=O)[O-])c(C(F)(F)F)c1	inconclusive: -53.7%
CC(C)NC(=S)N/N=C/c1sc(N2CCCCC2)nc1-c1cccs1	inconclusive: -48.9%
Fc1ccccc1CCNc1nnnn1-c1ccccc1	inactive: -28.9%
Cc1ccc(C(=O)C(C)OC(=O)CN2C(=O)NC3(CCCC3)C2=O)cc1C (stereo not drawn)	inactive: -8.49%
Cc1cccc(OCCNc2nc3c(c(=O)n(C)c(=O)n3C)n2C)c1	inconclusive: -40.6%
O=C(CS(=O)(=O)c1c[nH]c2ccccc12)N1CCc2ccccc21	inactive: 16.5%
COc1cccc(C(=O)CC(=O)C(=O)Nc2ccc(C)cc2Cl)c1	inactive: -12.7%
CC(C)(C)NC(=O)C(c1ccc(-c2ccccc2)cc1)N(C[C@H]1CC[C@@H]([C@@H]2CC[C@H](CO)O2)O1)C(=O)c1ccc(C(C)(C)C)cc1 (stereo partly drawn)	active: -101%
N=c1sccn1Cc1ccc(Cl)cc1Cl	inactive: -9.48%
CC1=C(C(N)=O)C(c2ccccn2)n2nc(-c3ccccc3Cl)nc2N1 (stereo not drawn)	inactive: 11.7%
Cc1ccc(Cn2cc(S(=O)(=O)c3cccc(Cl)c3)c(=O)c3cc(F)c(N4CCCCC4)cc32)cc1	inconclusive: -44.7%
C[C@H](CO)N1C[C@H](C)[C@@H](CN(C)C(=O)NC2CCCCC2)Oc2c(NS(=O)(=O)c3cn(C)cn3)cccc2C1=O	inconclusive: -40.4%
Oc1ccc2ccccc2c1N=Nc1ccccn1	active: -97.7%
CCCSc1nnc(CNC(=O)C23CC4CC(CC(C4)C2)C3)n1Cc1ccccc1	inactive: -32.4%
CCOc1ccc(NC(=O)c2c(NCc3cccc(OC)c3OC)sc3c2CCC3)cc1	inactive: 13%
CCOc1ccc(NC(=S)N(CCN2CCOCC2)Cc2ccc3c(c2)CCCN3CC)cc1	inconclusive: -41.6%
Cc1cc(C)cc(NC(=O)c2ccccc2NC(=O)CCC(=O)O)c1	inconclusive: -59.8%
O=C(C1CCCN(S(=O)(=O)c2cccc3nsnc23)C1)N1CCN(c2ccccc2)CC1 (stereo not drawn)	inactive: -39.8%
COc1ccc(CSCC(=O)NN=C2CCN(C)CC2)cc1	inconclusive: -53%
CC1CC(C)CN(C(=O)c2ccc(S(=O)(=O)N3CCCC3)cc2)C1 (stereo not drawn)	inactive: -20.2%
Cc1cc(-c2nnc(SCC(=O)c3ccc(F)cc3)o2)no1	inconclusive: -47.4%

Quoted from the listing:
Value for Cc1cccc(OCCNc2nc3c(c(=O)n(C)c(=O)n3C)n2C)c1 under activity change, negative = inhibition: inconclusive: -40.6%
Value for Cc1cc(C)cc(NC(=O)c2ccccc2NC(=O)CCC(=O)O)c1 under activity change, negative = inhibition: inconclusive: -59.8%
Value for N=c1sccn1Cc1ccc(Cl)cc1Cl under activity change, negative = inhibition: inactive: -9.48%
Value for O=C1CC(Sc2nnnn2C2CCCCC2)C(=O)N1c1ccccc1 (stereo not drawn) under activity change, negative = inhibition: active: -69.2%

The results go on.

Compound	activity change, negative = inhibition
O=C(CSc1nc(Nc2ccccc2)nc(N2CCOCC2)n1)Nc1ccccc1Cl	inconclusive: -50.4%
Cc1ccc(NC(=O)CSc2nnnn2C2CCCC2)cc1S(=O)(=O)N1CCOCC1	inconclusive: -44.1%
CCOCC(=O)NC1CCc2cc(OC)c(OC)c(OC)c2-c2ccc(SC)c(=O)cc21 (stereo not drawn)	active: -66.2%
Cc1ccc(NC2=CC(=O)CC(c3ccccc3)C2)cc1 (stereo not drawn)	inconclusive: -42.1%
OC[C@H]1OC(O)[C@H](O)[C@@H](O)[C@H]1O (stereo partly drawn)	active: -61.3%
COc1cc(NCc2ccccc2O)c2ncccc2c1	inactive: 17.9%
COc1ccc(C2=NOC(C(=O)Nc3ccc(C)cc3)C2)cc1OC (stereo not drawn)	inactive: 8.22%
CC1=C(C)C(=O)N(c2ccccn2)C1=O	inactive: 8.04%
COc1ncccc1C(=O)N1CCCC(C(=O)Nc2cccc(-c3ccc(F)cc3)c2)C1 (stereo not drawn)	inconclusive: -56.5%
O=C(CN1CCN(c2ccccn2)CC1)Nc1ccccc1Br	inactive: -15.1%
Cc1c2cnn(CC(=O)N3CCC4(CC3)OCCO4)c(=O)c2c(C)n1Cc1cccc(Cl)c1	inconclusive: -57.3%
Cc1ccc(S(=O)(=O)NNC(=O)c2cc(C)c(C)cc2N)cc1	inconclusive: -42.7%
O=C1/C(=C/c2ccc(F)cc2)SC(=S)N1CC(=O)N1CCCCC1c1cccnc1 (stereo not drawn)	active: -82.6%
Cn1c(C(=O)N2COCC2(C)C)cc2c(=O)n3ccccc3nc21	inactive: 61.6%
CCOC(=O)[C@]12CCCC=C1N(CCC1=CCCCC1)C(=O)[C@H](CC(=O)NCC13CC4CC(CC(C4)C1)C3)C2	inactive: -26.5%
COc1ccc(C)cc1S(=O)(=O)N1CCN(C(=O)c2ncoc2-c2cccc(C)c2)CC1	inactive: -6.78%
Cc1ccc(C2NC(=O)c3sc(=S)n(-c4ccccc4)c3N2)cc1 (stereo not drawn)	inconclusive: -47.4%
O=C(c1cc2ccccc2c(=O)o1)N1CCCC1	inconclusive: -41%
O=C(NCC1CCCO1)c1nn2c(c1Cl)NC(c1ccc(F)cc1)CC2C(F)(F)F (stereo not drawn)	inactive: -7.3%
CCOC(=O)c1ccc(N2C(=O)c3[nH]nc(-c4ccc(C)cc4)c3C2c2cccs2)cc1 (stereo not drawn)	inconclusive: -56.6%
CC(C)c1onc(C(=O)Nc2cccc(O)c2)c1[N+](=O)[O-]	inconclusive: -57.6%
COc1ccccc1NC(=O)COc1ccc(Br)cc1CNCCCN1CCOCC1	inconclusive: -43.4%

Compound	activity change, negative = inhibition
COc1ccc(C(=O)O)cc1S(=O)(=O)NCc1ccncc1	inactive: 36%
O=C(Cc1ccccc1)NCC(=O)N1CCC1	inconclusive: -47.1%
CCCCN(CCCC)CCCNC(=O)Cn1cc2c(n1)-c1c(oc(C(=O)N3CCCC3)c1C)CC2	inconclusive: -59.4%
CCc1cccc(NC(=O)CN(c2ccc(C)c(C)c2)S(=O)(=O)c2ccsc2C(=O)OC)c1	inactive: 7.64%
O=C(CCOc1ccccc1)Nc1ccc(Cl)c(S(=O)(=O)N2CCOCC2)c1	inactive: -2.01%
CCOC(=O)c1ccc(NC(=O)CCOc2ccccc2)cc1	inactive: -15.9%
O=C(N/C(=C/c1cccc([N+](=O)[O-])c1)C(=O)N1CCCCC1)c1ccco1	inactive: -8.02%
Cc1cc(C)cc(NC(=O)Nc2cc(-c3ccccc3)nn2C)c1	active: -68.7%
O=C1CCN(S(=O)(=O)c2ccc(F)cc2)C(c2ccccc2)C1 (stereo not drawn)	inconclusive: -54.2%
CC(C)OCCCNc1ncnc2sc3c(c12)CCCC3	inconclusive: -41.4%
Cc1nc2c(Br)cc(Br)cc2c(=O)n1-c1ccccc1NC1OCC(O)C(O)C1O (stereo not drawn)	active: -77.4%
Oc1ccccc1CNc1ccc2c(c1)OCCO2	inconclusive: -47.4%
O=C(NCc1cccc(F)c1)c1[nH]c(C(F)(F)F)nc1-c1ccccc1	inconclusive: -41.1%
CCc1ccc(-c2cc(C(=O)NN3CCOCC3)c3ccccc3n2)s1	inconclusive: -40.7%
CC(NC(=O)CSC(=S)N(C)C)C12CC3CC(CC(C3)C1)C2 (stereo not drawn)	inconclusive: -41.4%
Cc1cccc(N=C2NC(=O)/C(=C/c3cccnc3)S2)c1C	inconclusive: -47%
CCc1ccccc1N1C(=O)C2C3C=CC(CC3)C2C1=O (stereo not drawn)	inconclusive: -42.6%
Cn1c(=O)c(C(=O)Nc2ccccn2)c(O)c2ccccc21	inconclusive: -59.4%
O=C1CCCN1c1ccc(N2CCCC2=O)cc1	inactive: 27.1%
COc1ccc(N2CCN(C(=O)C3CCCN(S(=O)(=O)c4ccc(C)cc4)C3)CC2)cc1 (stereo not drawn)	inconclusive: -51.1%
CC1CCC(NC(=O)COC(=O)c2n[nH]c(=O)c3ccccc23)CC1 (stereo not drawn)	inactive: -14.5%
O=C(OCc1ccc(C(=O)c2ccccc2)cc1)c1cccc(-c2nnc(-c3ccccc3)o2)c1	inconclusive: -49.6%

Compound	activity change, negative = inhibition
O=C(COc1ccccc1)Nc1ccc(N2CCN(C(=O)c3ccco3)CC2)cc1	inactive: 13.8%
CC(=O)c1ccc(N2CCN(CC(=O)Nc3ccc4c(c3)OCCO4)CC2)cc1	inactive: 54.7%
CN(N=Cc1cccc2cccnc12)c1ccc([N+](=O)[O-])cc1[N+](=O)[O-]	inactive: -16.2%
COc1ccccc1N1CCN(c2nc(-c3ccccc3)cc(C(F)(F)F)n2)CC1	inactive: -21.4%
O=C(Nc1cccc(Cl)c1Cl)c1ccco1	inconclusive: -59.7%
COC(=O)c1[nH]c2ccccc2c1NC(=O)/C=C/c1ccc2c(c1)OCO2	inactive: -10.8%
Cc1cc(Nc2ccc(Br)cc2F)n2ncnc2n1	inactive: 3.15%
C[C@H]1CN=C(Nc2ccccc2)N1CC1CCCCCC1	inconclusive: -44%
O=c1c2cc(-c3ccccc3)sc2ncn1-n1cccc1	inactive: -18.2%
CN1OC(C)(CC(=O)Nc2ccccc2F)N=C1c1cc(F)ccc1F (stereo not drawn)	inconclusive: -43.7%
COc1cc(-c2nnc(COC(=O)c3ccc(C)o3)o2)cc(OC)c1OC	inactive: 8.37%
COc1ccc(-c2nc3ccccc3c(=O)n2N)cc1	inactive: 12.6%
CCOc1cccc(C(=O)NC(=S)Nc2cccc(C)c2)c1	active: -98.6%
COc1ccc(N(C(=O)c2snc(C(N)=O)c2N)C(C(=O)NC2CCCCC2)c2ccc(C)o2)cc1 (stereo not drawn)	active: -69.6%
C[N+](C)(C)CC1CCCc2ccccc2C1=O (stereo not drawn)	inconclusive: -49.6%
O=C(NCc1ccccc1)C(c1ccccc1)N(Cc1ccc2c(c1)OCO2)C(=O)Cc1cccs1 (stereo not drawn)	inactive: -23.2%
CC(=O)c1ccc(N2CCCCCC2)c(F)c1	inactive: 59.6%
Cc1ccc(-c2cc(C(=O)Nc3ccc(S(=O)(=O)N4CC(C)OC(C)C4)cc3)[nH]n2)c(O)c1 (stereo not drawn)	inconclusive: -56%
CCCCn1c(-c2sccc2C)n[nH]c1=S	inconclusive: -47.7%
NC(=S)c1cn(C2OC(CO)C(O)C2O)c2ncnc(N)c12 (stereo not drawn)	active: -99.3%
COc1ccccc1C1CCN(c2cc(O)ccc2[N+](=O)[O-])CC1	active: -72.1%
COc1cc2c(cc1OC)C1=NC(=O)CN1C(SCc1ccccc1C)=N2	inconclusive: -58.6%
